Experimental findings from the supplement of paper PMC4635364 are described below.

Structures can show the parent of a compound that is named as a salt. The list shows a part of the results. Single values are uncertain here, since repeats match poorly.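 ReNCell VM, a human fetal ventral-midbrain neural progenitor line, was differentiated without mitogens. Blinded raters scored images stained for doublecortin (early neurons) or tyrosine hydroxylase (dopaminergic neurons) against untreated wells (0 = no change). Scores were averaged across repeats and both raters, and compounds averaging 2 or more were selected as hits for retesting.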

Assay [1] deals with ReNCell VM. Kind of assay: neuronal differentiation score (DCX+ cell fraction vs untreated, manual image score) (score (-3 to 3)); higher = more neuronal differentiation. Conditions: 2 uM, 2 weeks.
The test system of assay [2] is ReNCell VM. Put plainly: dopaminergic neuron differentiation score (TH+ cell fraction vs untreated, manual image score) (score (0 to 3)); higher = more TH+ dopaminergic neuron differentiation. The conditions noted are these: 2 uM, 4 weeks, BDNF 10 ng/ml + GDNF 10 ng/ml.

As to `O=S(=O)(c1cccc2cnccc12)N1CCCNCC1` [Fasudil hydrochloride], the neuronal differentiation score in the assay on ReNCell VM [1] (library: Tocriscreen) was inactive: -2. Further, the “dopaminergic neuron differentiation score” value with ReNCell VM [2] (library: Tocriscreen) was inactive: 0.

For `CN1CCN(CCCN2c3ccccc3Sc3ccc(S(=O)(=O)N(C)C)cc32)CC1` [Thioproperazine dimesylate], the neuronal differentiation score in the assay with ReNCell VM [1] (library: Prestwick) is inactive: 0. Moreover, in the assay on ReNCell VM [2] (library: Prestwick), the “dopaminergic neuron differentiation score” value was inactive: 0.

As for `CC(C)=CCn1cnc2c1c(=O)n(C)c(=O)n2C` [7-prenyl-theophylline], the neuronal differentiation score with ReNCell VM [1] (library: Natural) was inactive: 0. Further, the “dopaminergic neuron differentiation score” value in the assay with ReNCell VM [2] (library: Natural) was inactive: 0.

Consider `CC(Cc1cccc(C(F)(F)F)c1)NCCOC(=O)c1ccccc1` (stereo not drawn), for which, in the assay with ReNCell VM [1] (library: Spectrum), the neuronal differentiation score was inactive: 0. For the same compound, the “dopaminergic neuron differentiation score” value in the assay with ReNCell VM [2] (library: Spectrum) is inactive: 0.

For `CC(=O)O[C@]1(C(C)=O)CC[C@H]2[C@@H]3C=C(C)C4=CC(=O)CC[C@@H]4[C@H]3CC[C@@]21C` [Nomegestrol acetate], the neuronal differentiation score with ReNCell VM [1] (library: Prestwick) was inactive: 0. Also, the “dopaminergic neuron differentiation score” value in the assay on ReNCell VM [2] (library: Prestwick) was inactive: 0.

As for `CCCCNc1c(C(=O)OCC)c(C)nc2c1cnn2CC` [Tracazolate], in the assay on ReNCell VM [1] (library: LOPAC), the neuronal differentiation score is inactive: 1. Moreover, the “dopaminergic neuron differentiation score” value in the assay on ReNCell VM [2] (library: LOPAC) was inactive: 0.

Regarding `O=C(O)C1(C(=O)O)CCC1.[NH2-].[NH2-].[Pt+2]`, the neuronal differentiation score in the assay on ReNCell VM [1] (library: Spectrum) is inactive: 0. Further, the “dopaminergic neuron differentiation score” value in the assay with ReNCell VM [2] (library: Spectrum) is inactive: 0.

Take `O=C(CCCCC(=O)Nc1c(I)cc(I)c(C(=O)O)c1I)Nc1c(I)cc(I)c(C(=O)O)c1I`: the neuronal differentiation score in the assay with ReNCell VM [1] (library: Spectrum) is inactive: 0. In addition, in the assay on ReNCell VM [2] (library: Spectrum), the “dopaminergic neuron differentiation score” value was inactive: 0.

Regarding `O=C(NCCO)c1ccc2c(c1)nc(Nc1cccc(Cl)c1)c1ccncc12` [CK2 Inhibitor 2], in the assay with ReNCell VM [1] (library: LOPAC), the neuronal differentiation score is inactive: 0. Moreover, the “dopaminergic neuron differentiation score” value with ReNCell VM [2] (library: LOPAC) is inactive: 0.

As to `Cc1ccc(N(CC2=NCCN2)c2cccc(O)c2)cc1` [Phentolamine mesylate], the neuronal differentiation score with ReNCell VM [1] (library: LOPAC) is inactive: 0. The “dopaminergic neuron differentiation score” value in the assay on ReNCell VM [2] (library: LOPAC) is inactive: 0.

In the case of `CNCCCCc1cnc(C)c2[nH]c3ccccc3c12` [brevicarine], the neuronal differentiation score in the assay with ReNCell VM [1] (library: Natural) is inactive: 0. For the same compound, the “dopaminergic neuron differentiation score” value with ReNCell VM [2] (library: Natural) is inactive: 0.

In the case of `NC(=O)c1ccc[n+]([C@@H]2O[C@H](COP(=O)([O-])OP(=O)(O)OC[C@H]3O[C@@H](n4cnc5c(N)ncnc54)[C@H](O)[C@@H]3O)[C@@H](O)[C@H]2O)c1` [Nadide], the neuronal differentiation score in the assay on ReNCell VM [1] (library: Prestwick) was inactive: 0. In the assay on ReNCell VM [2] (library: Prestwick), the “dopaminergic neuron differentiation score” value was inactive: 0.

Consider `CCC(=O)c1c(O)cc(O)cc1O`, for which the neuronal differentiation score in the assay on ReNCell VM [1] (library: Spectrum) was inactive: 0. Further, in the assay on ReNCell VM [2] (library: Spectrum), the “dopaminergic neuron differentiation score” value was inactive: 0.

Take `CN(C)CCOC1=Cc2ccccc2Sc2ccc(Cl)cc21` [Zotepine]: the neuronal differentiation score with ReNCell VM [1] (library: Prestwick) is inactive: 0. Besides, the “dopaminergic neuron differentiation score” value in the assay with ReNCell VM [2] (library: Prestwick) was inactive: 0.

As for `CCCCNc1ccc(C(=O)OCCN(C)C)cc1`, the neuronal differentiation score in the assay with ReNCell VM [1] (library: Spectrum) is inactive: 0. In the assay on ReNCell VM [2] (library: Spectrum), the “dopaminergic neuron differentiation score” value was inactive: 0.

As to `Cc1c(N(C)CS(=O)(=O)O)c(=O)n(-c2ccccc2)n1C`, the neuronal differentiation score in the assay on ReNCell VM [1] (library: Spectrum) is inactive: 0. Moreover, the “dopaminergic neuron differentiation score” value in the assay on ReNCell VM [2] (library: Spectrum) was inactive: 0.

For `Cc1csc(-c2coc3cc(O[C@@H]4O[C@H](CO)[C@@H](O)[C@@H](O)[C@H]4O)ccc3c2=O)n1`, the neuronal differentiation score in the assay on ReNCell VM [1] (library: Natural) is inactive: 0. Further, the “dopaminergic neuron differentiation score” value in the assay on ReNCell VM [2] (library: Natural) was inactive: 0.

With `COc1ccc(CN2C(=O)C(=O)c3cc(OC(F)(F)F)ccc32)cc1`, the neuronal differentiation score in the assay on ReNCell VM [1] (library: Tocriscreen) was inactive: 0. For the same compound, the “dopaminergic neuron differentiation score” value with ReNCell VM [2] (library: Tocriscreen) is inactive: 0.

For the compound `CN(Cc1cnc2nc(N)nc(N)c2n1)c1ccc(C(=O)N[C@@H](CCC(=O)O)C(=O)O)cc1` (racemic) [Amethopterin (R,S)], the neuronal differentiation score in the assay on ReNCell VM [1] (library: Prestwick) was inactive: 0. Moreover, in the assay with ReNCell VM [2] (library: Prestwick), the “dopaminergic neuron differentiation score” value is inactive: 0.
